# Measurements as given in PubChem BioAssay AID2685 (National Center for Advancing Translational Sciences (NCATS), 2010).
# The other results are listed elsewhere or left out. Shown are side measurements of this screen, not its main read-out; they come without a call. Most of these compounds were active or inconclusive in the main read-out, so they are no random draw. Potencies come from curve fits of mixed quality, noted in brackets.
# Assay: qHTS Assay for Lipid Storage Modulators in Drosophila S3 Cells;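 as to cell number change: cells counted by Cell Tracker Red CMTPX staining in the red channel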
# Settings: BODIPY lipid droplet fluorescence, 18-24 h; for cell number change: measured here: cell count max response, cells fed with added oleic acid
# How it was run: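 Drosophila S3 cells got compounds at several concentrations plus oleic acid (400 uM solution). Laser-scanning cytometry with 488 nm excitation read lipid droplets at 500-530 nm and cells at 575-640 nm. Percent activity was relative to 20 uM Triacsin C.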
# [1] = measured here: cell number channel AC50, cells fed with added oleic acid
# [2] = measured here: lipid fluorescence (Fed channel) AC50, cells fed with added oleic acid
Compound,cell number change,AC50 [1],AC50 [2]
CCN(CC)c1ccc(/C=C/C(=O)c2cccnc2)cc1,95.7%,"29.1 µM [rising, partial curve, poor fit]",–
O=C(Nc1nccs1)c1ccc(Br)cc1,13.5%,–,"29.1 µM [falling, single point]"
CNC(=O)c1c(NC(=O)c2ccc(S(=O)(=O)N(C)c3ccccc3)cc2)sc2c1CCN(C(C)C)C2,–,–,"6.31 µM [falling, full curve]"
O=C(CSc1cn(CCNC(=O)c2cccs2)c2ccccc12)NC1CCCCC1,18.5%,–,"6.51 µM [rising, single point]"
CC(OC(=O)CCCOc1ccccc1)C(=O)Nc1ccc(Cl)cn1 (stereo not drawn),-11.1%,–,–
CC1CC(C)(C)n2c(O)c(N=NC(N)=S)c3cccc1c32 (stereo not drawn),-55.4%,"9.2 µM [falling, partial curve, poor fit]","7.31 µM [falling, partial curve]"
CCCC(=O)Nc1ccc2nc(SCC(=O)Nc3ccc(N4CCOCC4)c(Cl)c3)sc2c1,–,"4.11 µM [rising, single point]","9.2 µM [rising, partial curve]"
COc1ccc(-c2nc(CN3CCC(c4ccccc4)CC3)c(C)o2)cc1OC,4.66%,–,"25.9 µM [rising, single point]"
Cc1onc(-c2c(Cl)cccc2Cl)c1C(=O)Nc1c(C)n(C)n(-c2ccccc2)c1=O,11.8%,–,"29.1 µM [rising, single point]"
O=C1CCCc2[nH]nc(-c3cccnc3)c21,77.3%,"5.17 µM [rising, partial curve]",–
CCN(CC)S(=O)(=O)c1ccc(OC)c(NC(=O)c2ccc(N3CCCC3=O)cc2)c1,-5.22%,–,–
C/C(=N\NC(=S)NC(C)C)c1ccc(Cl)s1,-56%,"29.1 µM [falling, single point]","5.8 µM [falling, partial curve, poor fit]"
COCc1nnc(NC(=O)CCSc2ccccc2)s1,20.8%,–,"29.1 µM [rising, single point]"
O=S(=O)(NCc1cccnc1)c1ccc(Cl)c2ccccc12,19.4%,–,"29.1 µM [falling, single point]"
CC1CCCCN1Cc1ccc(-c2nn[nH]n2)cc1 (stereo not drawn),-115%,"29.1 µM [falling, partial curve]","20.6 µM [falling, partial curve]"
CCC(C)(C)NC(=O)C(c1ccncc1)N(Cc1cccs1)C(=O)Cn1nnc2ccccc21 (stereo not drawn),-20.2%,–,–
CCn1c(=S)sc2c(=O)n(-c3ccccc3)c(SC)nc21,-13.6%,–,"6.51 µM [falling, single point]"
CN(CCN1CCOCC1)Cc1nc(-c2ccc3c(c2)OCO3)no1,6.8%,–,–
CCc1nnc(NC(=O)CCN(c2ccc(C)cc2)S(=O)(=O)c2ccccc2)s1,-33.3%,"0.82 µM [falling, partial curve, poor fit]",–
Cc1ccc(OCC(=O)N2CCN(c3nnc(-c4ccc(C)cc4)c4ccccc34)CC2)cc1,–,"4.11 µM [rising, partial curve]",–

Compound,cell number change,AC50 [1],AC50 [2]
Cc1cc(C)cc(-n2nnn(C3C/C(=N/NC(N)=S)C4OCC3O4)c2=S)c1 (stereo not drawn),-20.8%,"0.0651 µM [falling, full curve, poor fit]",–
CS(=O)(=O)N(CC(O)CON=C1c2ccccc2-c2ccccc21)c1ccc(F)cc1 (stereo not drawn),14.6%,"1.3 µM [falling, full curve]","0.82 µM [falling, full curve]"
Cc1ccc(/C=C/C(=O)O)cc1S(=O)(=O)N1CCc2ccccc2C1,7.12%,"0.164 µM [rising, full curve, poor fit]",–
CC1(C)Cc2c(sc3[nH]c(=S)n(Cc4ccco4)c(=O)c23)CO1,-4.82%,–,"29.1 µM [rising, single point]"
O=C1CSC(=S)N1/N=C/C=C/c1ccccc1,–,–,"0.103 µM [falling, full curve, poor fit]"
CCn1c(=O)n(CC)c2cc(N3CCCC3)c(NC(=O)c3ccc(OC)c(Br)c3)cc21,1.15%,–,"0.13 µM [rising, full curve, poor fit]"
c1cc2nncn2nc1N1CCCC1,5.64%,–,"0.13 µM [falling, full curve]"
COc1ccc(NC(=O)CSc2n[nH]c(N)n2)cc1OC,30.4%,"10 µM [rising, single point]","8.91 µM [rising, partial curve, poor fit]"
Cc1cccn2c(=O)c3cc(S(=O)(=O)c4ccccc4)c(=N)n(Cc4ccc(F)cc4)c3nc12,10.4%,–,"29.1 µM [rising, single point]"
Cn1c(=O)oc2cc(S(=O)(=O)NCCC(=O)N3CCc4ccccc4C3)ccc21,81.3%,–,"4.11 µM [rising, single point]"
COc1ccccc1NC(=O)C1CCCCN1S(=O)(=O)c1ccc(F)cc1 (stereo not drawn),-10.9%,–,"0.0731 µM [falling, full curve, poor fit]"
Cc1ccc(-n2nc3c(c2NC(=O)c2c(F)cccc2Cl)CS(=O)(=O)C3)cc1C,11.4%,–,"6.51 µM [rising, single point]"
CC(=O)Nc1ccc(S(=O)(=O)NCc2ccc(C(=O)NC(C)c3ccccc3)cc2)cc1 (stereo not drawn),28%,–,–
CC(=O)/C(C[N+]1(C)CCCCC1)=N\O,-90.7%,"11.6 µM [falling, partial curve]","14.6 µM [falling, partial curve]"
O=C(NC1CS(=O)(=O)CC1NCc1ccccc1)c1ccccc1 (stereo not drawn),1.8%,–,"4.11 µM [rising, full curve, poor fit]"
COCCN(C(=O)COC(=O)/C=C/c1cccc(OC)c1)c1c(N)n(CC(C)C)c(=O)[nH]c1=O,75%,"2.31 µM [rising, full curve]",–
COc1ccc(C(=O)Nc2ccc(NS(=O)(=O)c3ccccc3)cc2)cc1OC,4.44%,–,"0.82 µM [rising, full curve, poor fit]"
Cc1cc(C)cc(Oc2cc(NC(=O)c3cn(C)nc3C)cc([N+](=O)[O-])c2)c1,-68.5%,"13 µM [falling, partial curve]","9.2 µM [falling, partial curve]"
CCOC(=O)C1(S(=O)(=O)c2ccc(Cl)cc2)CCN(Cc2ccc(Cl)cc2)CC1,–,–,"29.1 µM [rising, single point]"
COc1ccccc1N1CC(C(=O)OCC(=O)Nc2cc(C)on2)CC1=O (stereo not drawn),-16.5%,–,–

Compound,cell number change,AC50 [1],AC50 [2]
Cc1csc(=O)n1CC(=O)OCc1nnc(-c2ccc([N+](=O)[O-])cc2)o1,1.04%,–,–
COc1ccc(CC(=O)O/N=C(\N)c2ccncc2)cc1,5.12%,–,"3.66 µM [rising, single point]"
Cc1ccc2nc(SCC(=O)NCc3ccco3)c(C#N)cc2c1,–,"6.51 µM [rising, single point]","6.51 µM [rising, single point]"
COCCn1c(/C=C/c2ccccc2)nc2ccccc21,-9.85%,"0.103 µM [falling, full curve, poor fit]","18.4 µM [falling, single point]"
O=C(NCCNc1ccnc2cc(Cl)ccc12)c1ccccc1F,-24.1%,–,"2.06 µM [falling, full curve, poor fit]"
COc1ccc(N2CC(C(=O)Nc3ccc4c(c3)OCO4)CC2=O)cc1 (stereo not drawn),–,"2.31 µM [rising, partial curve]","2.06 µM [rising, partial curve]"
Cc1cccc(-n2c(C)cc(/C=N\NC(=O)c3ccco3)c2C)c1,15.9%,–,–
CCC(C)C(NC(=O)C1CCC(C)CC1)C(=O)Nc1ccc(OC)cc1 (stereo not drawn),5.22%,–,–
CCc1cccc(C)c1NC(=O)COC(=O)Cc1ccsc1,19.8%,–,"16.4 µM [falling, single point]"
N#Cc1ccc(C(=O)CSc2nnc(-c3ccc(C(F)(F)F)cn3)s2)cc1,-27.5%,"3.66 µM [falling, full curve, poor fit]","3.26 µM [falling, partial curve, poor fit]"
O=C(/C=C/c1ccc2c(c1)OCO2)Nc1cc(S(=O)(=O)N2CCOCC2)ccc1N1CCOCC1,-37.1%,–,"0.0291 µM [rising, full curve, poor fit]"
CC(=O)Nc1ccc(S(=O)(=O)Nc2nnc(C(C)(C)C)s2)cc1,-6.06%,–,–
COc1ccc(CC(NC(C)=O)C(=O)NC2CCN(S(=O)(=O)c3ccc(NC(C)=O)cc3)CC2)c(OC)c1 (stereo not drawn),15%,–,"25.9 µM [rising, partial curve, poor fit]"
CCCCn1c(N)c(N(CC(C)C)C(=O)C2CC(=O)N(c3ccc(CC)cc3)C2)c(=O)[nH]c1=O (stereo not drawn),–,"0.517 µM [falling, partial curve, poor fit]","6.51 µM [falling, single point]"
Cc1nnc2c(-c3ccccc3)nc3ccccc3n12,-1.86%,–,"1.84 µM [rising, partial curve]"
O=c1oc(-c2ccc(Br)cc2)nc2ccccc12,3.52%,–,"6.51 µM [falling, single point]"
Cc1ccc(Nc2nc3ccccc3o2)cc1F,-50.1%,"16.4 µM [falling, partial curve]","16.4 µM [falling, partial curve]"
O=C(/C(=C/O)N=Nc1ccccc1)c1ccc(Cl)cc1,-128%,–,–
CCOC(=O)c1ccc(NC(=S)N2CCN(CCN=CC3=C(O)CC(C)(C)CC3=O)CC2)cc1,-63.1%,"29.1 µM [falling, single point]",–

# Laid out differently: 2 of the compounds above.
Compound | cell number change | AC50 [1] | AC50 [2]
Cc1ccc2nc(SCC(=O)NCc3ccco3)c(C#N)cc2c1 | – | 6.51 µM [rising, single point] | 6.51 µM [rising, single point]
COCCn1c(/C=C/c2ccccc2)nc2ccccc21 | -9.85% | 0.103 µM [falling, full curve, poor fit] | 18.4 µM [falling, single point]
